# Laboratory results as given in PubChem BioAssay AID493014 (National Center for Advancing Translational Sciences (NCATS), 2011).
# Screen size: about 340,000 compounds; about 170 (0.05%) were called active. Inconclusive results, whose numbers are uncertain, are shown with a selection of clear calls. Calls follow the shape of the dose curve; as a rule, active = well fitted inhibition curve with a large enough effect in the signal ratio, with a control signal flat (not every such curve was filed as active); inconclusive = small, poorly fitted or top-dose-only effect, or effect the other way, or a change in a side signal; inactive = flat fitted curve, though single readings scatter; the % refers to the signal ratio. Where the call is inconclusive, the potency comes from a doubtful curve fit.
# Assay: qHTS Assay to Find Inhibitors of Chronic Active B-Cell Receptor Signaling;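 as to activity change, negative = inhibition: plate controls were basal doxycycline-induced cells for no effect and cells given 10 µM MG132 for full effect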
# Settings: ABC-DLBCL IkBa-CBG/CBR reporter, luminescence ratio (green luciferase fused to IkBa over red control in TMD8 lymphoma cells), 4 h; activity change, negative = inhibition: at 46.1 µM (top of the series)
# Outline: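 Compounds up to 46 uM were incubated four hours with TMD8 cells whose green CBG68 luciferase is fused to IkappaBalpha; red CBR luminescence normalised the signal, and concentration-effect curves were fitted to fusion, red and ratio data.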
# Potency is read from the fitted curve at half-maximal effect.
Compound,"activity change, negative = inhibition",Potency
Cc1cccc(OCCCC(=O)Nc2ccc(N3CCOCC3)cc2)c1,inconclusive: -2.7%,
O=C(COC(=O)c1ccco1)Nc1cc(S(=O)(=O)N2CCOCC2)ccc1Cl,inactive: -14.4%,
Cc1nn(C(=O)CCCn2cc([N+](=O)[O-])cn2)c(C)c1Cl,inconclusive: 1.84%,
COc1ccc(Cl)cc1NC(=O)C(=O)NC1CCCCCC1,,"inconclusive: 0.461 µM [rising, full curve, poor fit]"
Cn1nccc1C(=O)NC1CCCc2c1cnn2-c1ccccc1F (stereo not given),inconclusive: 2.85%,
O=C(Nc1ccc(Br)cc1)c1ccc(N2C(=O)C3CC=C(Cl)CC3C2=O)cc1 (stereo not given),,"inconclusive: 0.231 µM [rising, full curve, poor fit]"
CCOC(=O)c1c(C)oc2c1c1c(c3ccccc32)OCN(Cc2ccccn2)C1,inactive: -1.43%,
COC(=O)c1c(C)[nH]c(C(=O)OCC(=O)c2ccc(C)s2)c1C,inconclusive: -7.15%,
Cc1c(C(=O)O)sc2[nH]c(=O)n(Cc3ccccc3)c(=O)c12,inconclusive: 8.45%,
COC(=O)c1cc(N=Nc2c(C)[nH]c3ccccc23)cc(C(=O)OC)c1,,"inconclusive: 0.398 µM [rising, full curve, poor fit]"
COc1ccccc1CNC(=O)c1cccc2c1C(=O)N(Cc1cccnc1)C2,inactive: 1.05%,
COC(=O)c1c(NC(=O)CSc2nnc(-c3ccco3)n2Cc2ccccc2)sc(C)c1C,,"inconclusive: 18.4 µM [falling, single point]"
C[C@]12C(=O)N(c3ccc(Cl)cc3)C(=O)N1[C@H]1c3ccccc3OC[C@@H]1[C@H]2c1ccccc1,inconclusive: 7.44%,
CCOC(=O)[C@H]1[C@H]2COc3ccc(C)cc3[C@@H]2N2C(=O)c3cc(F)c(F)cc3NC(=O)[C@@]12C,inconclusive: 2.75%,
CCOC(=O)N1CCN(C(=O)c2c[nH]c3ccc(S(=O)(=O)N(C)c4ccc(OCC)cc4)cc3c2=O)CC1,inactive: 11.2%,
O=C(OCc1ccccc1)/C(=C/c1cccc(Br)c1)NC(=O)c1ccco1,inconclusive: -6.83%,
Cc1cc(C(=S)N2CCOCC2)c(C)n1-c1ccc(F)cc1,inconclusive: -12.2%,
COc1cc2ccccc2cc1C(=O)N(CCN(C)C)c1nc2c(C)cccc2s1,inconclusive: -20.3%,
CCN(CC)CCNc1ncnc2c1sc1nc(N3CCCC3)c3c(c12)CC(C)(C)OC3,,"inconclusive: 22.4 µM [falling, single point]"
Nc1nc2ccc(C(=O)NC3CCCCC3)cc2s1,,"inconclusive: 35.5 µM [falling, single point]"
CC(=O)c1ccc(NC(=O)CSc2nccn2C)cc1,,"inconclusive: 12.6 µM [falling, partial curve, poor fit]"
Cc1cccc(OCCn2c(=O)oc3ccc(C)cc32)c1,inconclusive: 1.61%,
Cn1c(=O)n(C)c2cc(S(=O)(=O)Nc3ccccc3O)ccc21,,"inconclusive: 16.4 µM [falling, single point]"
CCC(=O)N1CCN(c2nc3ccccc3s2)CC1,inconclusive: 19.8%,
O=C(Nc1ccc(F)cc1)/C(Cl)=C/c1ccccc1,,"inconclusive: 35.5 µM [rising, single point]"

Compound,"activity change, negative = inhibition",Potency
Cc1nc(-c2ccc(C(=O)Nc3ccccc3F)cc2)cs1,inconclusive: 215%,
CCCCN(C(=O)c1ccc(N2CCCC2=O)cc1)c1c(N)n(Cc2ccccc2)c(=O)[nH]c1=O,inconclusive: -1.2%,
Cc1ccc(/C=C/C2=NN(C)C(=O)CC2)cc1,inconclusive: -28.2%,
O=C(Cc1ccc(Br)cc1)OCC(=O)c1ccc[nH]1,inactive: -1.06%,
O=C(O)/C=C\C(=O)Nc1cccc(C(=O)Nc2cccc(O)c2)c1,,"inconclusive: 22.4 µM [falling, partial curve, poor fit]"
O=C(NCc1ccccn1)c1cc(Cl)ccc1OCc1ccccc1,inconclusive: 5.67%,
CCOc1ccc(-n2c(SCC(=O)Nc3ccc(CC)cc3)nc3n[nH]c(C)c3c2=N)cc1,inconclusive: 7.84%,
COc1ccc(C(=O)NCc2ccc(-n3cccc3)cc2)cc1OC,inconclusive: 3.81%,
Cc1ccc(C)c(Cn2nc(-c3ccccc3)ccc2=O)c1,,"inconclusive: 35.5 µM [falling, partial curve, poor fit]"
Cc1c(N2C(=O)/C(=C\C3CC=CCC3)SC2=S)c(=O)n(-c2ccccc2)n1C (stereo not given),inconclusive: 3.22%,
Cc1ccc(SCCC(=O)N/N=C/c2ccncc2)cc1,inconclusive: -21.7%,
Cc1c(C(=O)NNC(=O)c2csc(N3CCOCC3)n2)oc2ccccc12,inconclusive: -13%,
COc1ccc(/C=N/N=C2/NC(=O)C(c3ccccc3)(c3ccccc3)S2)cc1,inconclusive: 7.41%,
N/C(=N\OC(=O)Cc1cccs1)c1ccc(Cl)cc1,inconclusive: 10.1%,
CC(C(=O)Nc1cc([N+](=O)[O-])ccc1Cl)N1CCN(c2ccccc2O)CC1 (stereo not given),inconclusive: -14.3%,
CC1CCCC(NC(=O)COC(=O)CCC2CCCC2)C1C (stereo not given),inactive: 1.66%,
CCN(CC)c1ccc(C(=O)OCC(=O)Nc2cc3oc4ccccc4c3cc2OC)cc1,inactive: 1.44%,
O=[N+]([O-])c1ccc(COc2ccccc2/C=N/O)cc1,inconclusive: -22.9%,
COc1ccccc1NC(=S)NCc1ccccc1Cl,inconclusive: 2.61%,
CCOC(=O)c1c(C)[nH]c(C(=O)Cn2c(=O)c3c(ncn3CC)n(Cc3ccccc3)c2=O)c1C,,"inconclusive: 0.13 µM [falling, full curve, poor fit]"
CCC(C)Oc1nc2c(c(=O)n(C)c(=O)n2C)n1C (stereo not given),inconclusive: 4.51%,
O=C(COc1cccc2ccccc12)N1CCN(c2ccccn2)CC1,inconclusive: -2.75%,
Cc1c(C#N)c(O)[nH]c(=O)c1N=Nc1ccc(Cl)c(C(=O)O)c1,inactive: -0.0298%,
O=C(COc1ccccc1-c1ccccc1)N/N=C/c1ccc2ccccc2c1,,"inconclusive: 4.11 µM [falling, full curve, poor fit]"
Cc1ccccc1-c1nc(C(=O)NCC2CCCO2)cc2c1[nH]c1ccccc12 (stereo not given),,"inconclusive: 10 µM [rising, partial curve, poor fit]"

# As entered above.
# Cc1nn(C(=O)CCCn2cc([N+](=O)[O-])cn2)c(C)c1Cl | activity change, negative = inhibition: inconclusive: 1.84%
# CCOC(=O)[C@H]1[C@H]2COc3ccc(C)cc3[C@@H]2N2C(=O)c3cc(F)c(F)cc3NC(=O)[C@@]12C | activity change, negative = inhibition: inconclusive: 2.75%
# O=C(COC(=O)c1ccco1)Nc1cc(S(=O)(=O)N2CCOCC2)ccc1Cl | activity change, negative = inhibition: inactive: -14.4%
